The source of these data is patent US20160089401A1, “USES OF TREHALOSE IN CELL SUSPENSIONS” (Cook General Biotechnology LLC, priority 2014, published 2016).

The structures appear in SMILES notation.

The series has as its system canine uterine regenerative cells (mesenchymal stem cell populations obtained from canine uterine tissue). Nature of the series: Cell morphology 24 hours after plating into T25 flasks. The series is classed as cell-based. The protocol: After time in the bag had expired, the cells were carefully removed from the bag with a syringe and 18 gauge needles. This volume was carefully placed in a 50 mL conical flask. It was mixed to ensure even distribution of cells, then mixed 1:1 with trypan blue and counted to determine viability. The volume was then centrifuged at 400 g for 5 minutes, supernatant aspirated, and resuspended in 2mL complete media. 1 mL of this cell suspension was then plated into a T25 flask. 24 hours later, the plates were observed and the condition of the cells noted.

On to `OC[C@H]1O[C@H](O[C@H]2O[C@H](CO)[C@@H](O)[C@H](O)[C@H]2O)[C@H](O)[C@@H](O)[C@@H]1O` [trehalose, (2R,3S,4S,5R,6R)-2-(hydroxymethyl)-6-[(2R,3R,4S,5S,6R)-3,4,5-trihydroxy-6-(hydroxymethyl)oxan-2-yl]oxyoxane-3,4,5-triol], for which the cell morphology entry (Donor1 cells, 24 hours after plating in T25 flasks, trehalose 3.3%, hydroxyethyl starch 25%) was “normal” and the cell morphology result (summary, cells plated into T25 flasks) is reported as “normal”.
